Values from PubChem BioAssay AID493246 (Drosophila RNAi Screening Center, 2011).

Screen: 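Genes fly cells need to grow and stay alive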 (primary screen)
Cells: Drosophila Kc and S2R+ cells
Reagents: long dsRNA against Drosophila genes
Measured: 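Raw, unnormalised count of remaining cells in each well; per-plate z-scores of cell number underlie the calls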
Scale: Kc cell number and S2R+ cell number: higher = more cells remaining
Active means: 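Active when the per-plate z-score of cell number is 3 or more in the direction of fewer cells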
In all, the deposit lists about 21,000 reagents; this is a random part of those with a known target gene and a result. Over the whole deposit, 429 (2%) got an active call. 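Values are raw and not normalised between plates; calls rest on per-plate z-scores that were not deposited.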 Reagents against one gene are numbered here. The record does not give: the amount of reagent, the time to read-out.

Cpsf160 (GeneID 44250)
- Kc cell number, rep 1: 1.37e6
- Kc cell number, rep 2: 1.44e6
- S2R+ cell number, rep 1: 1.17e6
- S2R+ cell number, rep 2: 1.28e6
- Call: inactive

CG15475 (GeneID 35319)
- Kc cell number, rep 1: 1.52e6
- Kc cell number, rep 2: 1.64e6
- S2R+ cell number, rep 1: 1.38e6
- S2R+ cell number, rep 2: 3.37e5
- Call: inactive

Dh44-R2 (GeneID 36368) #1
- Kc cell number, rep 1: 1.63e6
- Kc cell number, rep 2: 1.62e6
- S2R+ cell number, rep 1: 1.24e6
- S2R+ cell number, rep 2: 1.38e6
- Call: inactive

Dh44-R2 (GeneID 36368) #2
- Kc cell number, rep 1: 1.75e6
- Kc cell number, rep 2: 1.70e6
- S2R+ cell number, rep 1: 1.21e6
- S2R+ cell number, rep 2: 1.38e6
- Call: inactive

CG3548 (GeneID 37932)
- Kc cell number, rep 1: 1.40e6
- Kc cell number, rep 2: 1.49e6
- S2R+ cell number, rep 1: 1.14e6
- S2R+ cell number, rep 2: 1.20e6
- Call: inactive

Arl1 (GeneID 39745)
- Kc cell number, rep 1: 1.21e6
- Kc cell number, rep 2: 1.25e6
- S2R+ cell number, rep 1: 1.27e6
- S2R+ cell number, rep 2: 1.36e6
- Call: inactive

CG11269 (GeneID 37527)
- Kc cell number, rep 1: 1.59e6
- Kc cell number, rep 2: 1.73e6
- S2R+ cell number, rep 1: 1.37e6
- S2R+ cell number, rep 2: 4.13e5
- Call: inactive

CG5810 (GeneID 42513)
- Kc cell number, rep 1: 1.23e6
- Kc cell number, rep 2: 1.24e6
- S2R+ cell number, rep 1: 1.08e6
- S2R+ cell number, rep 2: 1.09e6
- Call: inactive

Sems (GeneID 40315)
- Kc cell number, rep 1: 1.44e6
- Kc cell number, rep 2: 1.88e6
- S2R+ cell number, rep 1: 1.29e6
- S2R+ cell number, rep 2: 1.33e6
- Call: inactive

CG11608 (GeneID 41556)
- Kc cell number, rep 1: 1.66e6
- Kc cell number, rep 2: 1.77e6
- S2R+ cell number, rep 1: 1.24e6
- S2R+ cell number, rep 2: 1.35e6
- Call: inactive

GluRIIE (GeneID 318623)
- Kc cell number, rep 1: 1.56e6
- Kc cell number, rep 2: 1.47e6
- S2R+ cell number, rep 1: 1.08e6
- S2R+ cell number, rep 2: 1.01e6
- Call: inactive

CG17625 (GeneID 42678)
- Kc cell number, rep 1: 1.56e6
- Kc cell number, rep 2: 1.58e6
- S2R+ cell number, rep 1: 9.39e5
- S2R+ cell number, rep 2: 1.11e6
- Call: inactive
